Experimental findings from US9700637B2 (Massachusetts Institute of Technology, priority 2013, dated 2017) are described below.

In one data set the test system is HeLa cells. Description: Live cell fluorescence imaging: localization, co-localization and uptake. The format is cell-based. As to the method:
FIG. 6 depicts live cell imaging of HeLa cells. 500 nM mitotracker Red was bath-applied along with 1 μM DA-ZP1-TPP for 30 min at 37° C. and 5% CO2. After exposure to 25 μM 1:2 zinc:pyrithione, fluorescent images were acquired and the co-localization of the two sensors was assessed. The calculated Pearson's correlation coefficient (r) was r=0.581±0.097 (n=9), which represents the average of 9 ROIs over three independent plates.
FIG. 14 depicts live cell imaging of HeLa cells. 1 μM Lysotracker Red was bath-applied along with 2 μM ZP1-TPP. The calculated Pearson's correlation coefficient (r) was r=0.45±0.15, which represents the average of 9 ROIs over three independent plates.
FIG. 24 depicts fluorescence images of live HeLa cells. HeLa cells were pretreated with a 1 μM solution of DA-ZP1-TPP in dye- and serum-free medium for 30 min (37° C., 5% CO2). […] The signal from MitoTracker Red (c) correlates well with the signal from the zinc-bound sensor (d). Pearson's r=0.64±0.1 (n=18).
FIG. 27 depicts deconvoluted fluorescence microscopy images of live HeLa cells pretreated with ZP1-R9 (5 μM) or DA-ZP1-R9 (2.5 μM) and the indicated organelle stain. Top, ZP1-R9: (a) Differential interference contrast (DIC) image, (b) signal from ZP1-R9, (c) signal from LysoTracker Red, (d) overlay of (b) and (c). Pearson's r=0.42±0.16 (n=8). Bottom, DA-ZP1-R9: (e) DIC, (f) signal from DA-ZP1-R9 after treatment with 25 μM ZnPT, (g) signal from Hoechst 33258, (h) overlay of (f) and (g). Scale bar=25 μm.
FIG. 29 depicts deconvoluted fluorescence microscopy images of live HeLa cells pretreated with 1 μM DA-ZP1-R9 and 100 nM Dextran Red. (a) Differential interference contrast (DIC), (b) signal from DA-ZP1-R9 after addition of 25 μM ZnPT (c) signal from Dextran Red, (d) overlay of (b) and (c). Pearson's r=0.55±0.12 (n=11). Scale bar=25 μm.
FIG. 31 depicts deconvoluted fluorescence microscopy images of ZP1-(Fxr)3 and DA-ZP1-r(Fxr)3 in live HeLa cells. Top, cells pretreated with medium containing 2.5 μM of ZP1-(Fxr)3: (a) Differential interference contrast (DIC) image, (b) signal from ZP1-(Fxr)3, (c) signal from Dextran Red, (d) overlay of (b) and (c). Pearson's r=0.71±0.07. Bottom, cells pretreated with 1 μM DA-ZP1-r(Fxr)3: (e) DIC, (f) signal from DA-ZP1-r(Fx)3 after treatment with 25 μM ZnPT, (g) signal from MitoTracker Red, (h) overlay of (f) and (g). Pearson's r=0.41±0.09. Scale bar=25 μm.
FIG. 33 depicts deconvoluted fluorescence microscopy images of DCF-r(Fxr)3 and DA-DCF-r(Fxr)3 in live HeLa cells. Top, cells pretreated with 5 μM DCF-r(Fxr)3 and 500 nM MitoTracker Red for 30 min. (a) differential contrast image (DIC), (b) signal from DCF-r(Fxr)3, (c) signal from MitoTracker Red. Bottom, cells pretreated with 5 μM DA-DCF-r(Fxr)3 and 500 nM MitoTracker Red for 30 min. (d) DIC, (e) signal from DCF-r(Fxr)3, (f) signal from MitoTracker Red. The global Pearson's r=0.57±0.16 (n=37). Cells with high levels of DA-DCF-r(Fxr)3 (e, red outline) have a higher Pearson's r=0.83±0.08 (n=10). Scale bar=25 μm.
We used HeLa cells as a model system to evaluate the ability of DA-ZP1-TPP to target mitochondria and respond to changes in intracellular zinc levels. […] Over a two-hour period, the fluorescence intensity from the sensor remained constant, implying that the acetylated form is stable against intracellular esterases (FIG. 24e). […] Addition of 100 μM TPEN attenuated the fluorescence signal by ˜2.4-fold (FIG. 24f). […]

A short description of data set [1]: Zinc-induced fluorescence response in cuvette (turn-on, quantum yield). Format: physicochemical. As for the experimental part:
FIG. 2 depicts the normalized fluorescent spectra of DA-ZP1-TPP (also referred to as Ac2-ZP1-TPP) and ZP1-TPP in the absence (dashed line) and presence (solid line) of excess ZnCl2. Inset: The y-axis is magnified to aid in the visualization of the ˜7-fold “turn-on” of ZP1-TPP.
FIG. 20 depicts Zn(II)-dependent fluorescence signal enhancement of DA-ZP1-TPP. (a) Normalized fluorescence spectra of a 1 μM solution of DA-ZP1-TPP, in 50 mM PIPES buffer (pH 7) with 1 mM EDTA, 2 mM CaCl2, and 100 mM KCl, upon increasing concentrations of free zinc ions. (b) Zinc binding isotherm for the data in (a), normalized to the fluorescence signal under zinc saturating conditions (λex=495 nm).
Spectra were acquired in 50 mM PIPES (pH 7) with 100 mM KCl. For this titration, a single excitation wavelength of λex=485 nm was used.
The diacetylated version of ZP1-TPP, designated DA-ZP1-TPP, was readily prepared by reacting ZP1-TPP with acetic anhydride overnight at room temperature. Over the course of the reaction, the mixture turned from a dark, salmon-colored solution to a light, nearly colorless liquid, which was purified by HPLC. […] Addition of nanomolar concentrations of zinc ions results in a large increase in both the absorption λabs-Zn=510 nm) and fluorescence (λem-Zn=529 nm, FIG. 20a) spectral bands of DA-ZP1-TPP. These optical changes combine to yield a >140-fold increase in the fluorescence signal (ΦZn=0.75±0.03, FIG. 20). […] Whether the mode of zinc-mediated ester hydrolysis proceeds by internal or external hydroxide attack remains to be determined. […] Addition of a chelator (EDTA) attenuates the fluorescence signal ˜5-fold (Φ=0.15±0.02) in the cuvette (FIG. 22) with a concomitant redshift in the absorption spectrum (λabs=522 nm). Reversibility of the fluorescence signal is an important feature for zinc-responsive probes, because it allows confirmation that the observed increase in fluorescence signal is due to Zn(II) and not the result of an artifact. […]
Using DA-ZP1-A3 as a model system, we assessed its photophysical and zinc-binding properties (FIG. 26). […]

SMILES strings stand for the structures.

Turning to `O=C(NCC[P+](c1ccccc1)(c1ccccc1)c1ccccc1)c1ccc2c(c1)C1(OC2=O)c2cc(Cl)c(O)c(CN(Cc3ccccn3)Cc3ccccn3)c2Oc2c1cc(Cl)c(O)c2CN(Cc1ccccn1)Cc1ccccn1` [ZP1-TPP], in the data set on HeLa cells (live HeLa cells), the “Pearson's r, co-localization with LysoTracker Red” value worked out at 0.45±0.15 and the “Pearson's r, co-localization with MitoTracker Red” value (shortened to “Pearson's r … with MitoTracker Red”) is listed as −0.15±0.07.

Turning to `O=C(NCC[P+](c1ccccc1)(c1ccccc1)c1ccccc1)c1cc2cc3c4c(c2oc1=O)CCCN4CCC3` [C343-TPP], the “Pearson's r … with MitoTracker Red” value in the data set with HeLa cells (live HeLa cells) is recorded as 0.72±0.02.

Regarding `CC(=O)Oc1c(Cl)cc2c(c1CN(Cc1ccccn1)Cc1ccccn1)Oc1c(cc(Cl)c(OC(C)=O)c1CN(Cc1ccccn1)Cc1ccccn1)C21OC(=O)c2ccc(C(=O)NCC[P+](c3ccccc3)(c3ccccc3)c3ccccc3)cc21` [DA-ZP1-TPP], the “quantum yield Φ after addition of chelator (EDTA)” value in data set [1] (EDTA added after zinc) is reported as 0.15±0.02. Also, the “quantum yield ΦZn” value in data set [1] (after addition of zinc) is given as 0.75±0.03. For the same compound, in data set [1] (before zinc addition), the “quantum yield Φ of acetylated pro-sensor, metal-free” value is no more than 0.001. Further, the “Pearson's r … with MitoTracker Red” value in the data set on HeLa cells (live HeLa cells) turned out to be 0.64±0.1. In addition, the “Pearson's correlation coefficient (r), co-localization with mitotracker Red” value in the data set on HeLa cells (live HeLa, 500 nM mitotracker Red, 1 μM probe, 25 μM 1:2 zinc:pyrithione, 9 ROIs) stood at 0.581±0.097.
